The entries are a selection whose mix differs from that of the whole data set.

This note sets out measurements from published antibiotic growth screens (doi:10.1016/j.cell.2020.01.021).

The test deals with E. coli BW25113. Kind of test: relative growth (fraction of control); higher = less inhibition. As to conditions: 50 µM.
In turn, `CN1CCN(CCCN2c3ccccc3Sc3ccc(Cl)cc32)CC1.O=S(=O)(O)CCS(=O)(=O)O` returned a relative growth of 0.844.
